Results are given in words; binding and its absence hold for the method and conditions named. Some entries that bind do so weakly or less than the wild type.
Key:
hCD64-Biotin (human) [1] = biological target: hCD64-Biotin (human) (UniProt P12314); test: binding kinetics on biotinylated Fc receptor, instrument not named
hFcRn-β2M-Biotin (human) [2] = biological target: T1, hFcRn-β2M-Biotin (human) (UniProt P55899+P61769); test: as above
VEGF165-Biotin [3] = biological target: VEGF165-Biotin (UniProt P15692); test: binding kinetics on VEGF165-Biotin, signal (nm) against time (sec); construct diluted 1:5 from 10 nM, concentrations not labelled on the sheet; platform not named
hFcRn-β2M-Biotin (human) [4] = biological target: T1, hFcRn-β2M-Biotin (human); test: binding kinetics on hFcRn-β2M-Biotin, signal (nm) against time (sec); construct diluted 1:5 from 200 nM, concentrations not labelled on the sheet; platform not named
VEGF165-Biotin [5] = biological target: VEGF165-Biotin (UniProt P15692); test: binding kinetics on VEGF165-Biotin, instrument not named
hCD64-Biotin (human) [6] = biological target: hCD64-Biotin (human) (UniProt P12314); test: binding kinetics on hCD64-Biotin, signal (nm) against time (sec); construct diluted 1:5 from 50 nM, concentrations not labelled on the sheet; platform not named
VEGF165-Biotin [7] = biological target: VEGF165-Biotin (UniProt P15692); test: binding kinetics on VEGF165-Biotin, signal (nm) against time (sec); construct tested only at the highest concentration, 10 nM, not labelled on the sheet; platform not named
VEGF165-Biotin [8] = biological target: VEGF165-Biotin (UniProt P15692); test: binding kinetics on VEGF165-Biotin, instrument not named; only 10 nM tested

Amino acid sequences for entries named in this document (tags omitted). A change or cut given only in a name is not applied to a line headed by its entry. Chains listed by the source or under a name are the forms on record and can include a tag or linker. Residues count along the entry.
UniProt P12314, residues 16-288: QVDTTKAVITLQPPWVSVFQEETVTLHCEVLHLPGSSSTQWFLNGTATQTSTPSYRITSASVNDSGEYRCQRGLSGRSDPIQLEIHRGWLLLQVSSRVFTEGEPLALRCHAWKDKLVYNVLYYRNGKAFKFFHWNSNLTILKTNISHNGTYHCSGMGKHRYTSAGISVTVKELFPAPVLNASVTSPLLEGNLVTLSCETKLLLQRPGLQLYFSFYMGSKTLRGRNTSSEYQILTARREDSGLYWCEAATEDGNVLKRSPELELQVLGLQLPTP
UniProt P55899: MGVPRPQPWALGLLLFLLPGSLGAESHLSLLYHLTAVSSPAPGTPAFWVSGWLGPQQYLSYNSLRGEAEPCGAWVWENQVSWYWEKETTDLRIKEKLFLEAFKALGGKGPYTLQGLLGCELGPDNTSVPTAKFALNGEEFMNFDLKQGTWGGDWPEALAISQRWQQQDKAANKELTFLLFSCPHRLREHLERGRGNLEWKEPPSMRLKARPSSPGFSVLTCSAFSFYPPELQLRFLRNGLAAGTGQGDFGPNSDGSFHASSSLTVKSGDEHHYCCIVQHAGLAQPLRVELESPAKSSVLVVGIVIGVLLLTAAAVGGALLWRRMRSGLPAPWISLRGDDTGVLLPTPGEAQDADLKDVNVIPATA
UniProt P61769: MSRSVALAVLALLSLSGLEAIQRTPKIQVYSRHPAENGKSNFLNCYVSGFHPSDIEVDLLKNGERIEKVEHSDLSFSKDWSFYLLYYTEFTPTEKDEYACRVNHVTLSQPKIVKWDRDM
VEGF165-Biotin (P15692, form named): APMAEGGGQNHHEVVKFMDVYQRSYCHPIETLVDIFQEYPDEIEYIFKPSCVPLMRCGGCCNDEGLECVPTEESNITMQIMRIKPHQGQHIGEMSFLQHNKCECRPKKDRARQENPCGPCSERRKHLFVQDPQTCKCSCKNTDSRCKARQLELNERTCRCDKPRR

Measured: binding

B1: Hex-REGN3 (IgG1) Mut1 LALAPG (Fc fusion)
chain: SDTGRPFVEMYSEIPEIIHMTEGRELVIPCRVTSPNITVTLKKFPLDTLIPDGKRIIWDSRKGFIISNATYKEIGLLTCEATVNGHLYKTNYLTHRQTNTIIDVVLSPSHGIELSVGEKLVLNCTARTELNVGIDFNWEYPSSKHQHKKLVNRDLKTQSGSEMKKFLSTLTIDGVTRSDQGLYTCAASSGLMTKKNSTFVRVHEKDKTHTCPPCPAPEAAGGPSVFLFPPKPKDTLMISRTPEVTCVVVDVSHEDPEVKFNWYVDGVEVHNAKTKPREEQYNSTYRVVSVLTVCHQDWLNGKEYKCKVSNKALGAPIEKTISKAKGQPREPQVYTLPPSREEMTKNQVSLTCLVKGFYPSDIAVEWESNGQPENNYKTTPPVLDSDGSFFLYSKLTVDKSRWQQGNVFSCSVMHEALHNHYTQKSLDKSTGKPTLYNVSLIMSDTGGTCY
binds: hCD64-Biotin (human) [1] | hFcRn-β2M-Biotin (human) [2] | VEGF165-Biotin [3] | hFcRn-β2M-Biotin (human) [4] | VEGF165-Biotin [5] | hCD64-Biotin (human) [6]

B2: Hex-REGN3 (IgG1) Mut1-V2 PVA/P329A (Fc fusion)
chain: SDTGRPFVEMYSEIPEIIHMTEGRELVIPCRVTSPNITVTLKKFPLDTLIPDGKRIIWDSRKGFIISNATYKEIGLLTCEATVNGHLYKTNYLTHRQTNTIIDVVLSPSHGIELSVGEKLVLNCTARTELNVGIDFNWEYPSSKHQHKKLVNRDLKTQSGSEMKKFLSTLTIDGVTRSDQGLYTCAASSGLMTKKNSTFVRVHEKDKTHTCPPCPAPPVAGPSVFLFPPKPKDTLMISRTPEVTCVVVDVSHEDPEVKFNWYVDGVEVHNAKTKPREEQYNSTYRVVSVLTVCHQDWLNGKEYKCKVSNKALAAPIEKTISKAKGQPREPQVYTLPPSREEMTKNQVSLTCLVKGFYPSDIAVEWESNGQPENNYKTTPPVLDSDGSFFLYSKLTVDKSRWQQGNVFSCSVMHEALHNHYTQKSLDKSTGKPTLYNVSLVMSDTAGTCY
binds: VEGF165-Biotin [7] | VEGF165-Biotin [8]

From patent publication US20260055171A1
